Data reported in doi:10.1101/869123.
Results are given in words; binding and its absence hold for the method and conditions named. Binding seen in cells or lysates may run through a third protein. Binding calls can cover weak binding; strength is not graded here.

By UniProt entry, the sequences of proteins in these tests, tags left out. Where a name states a change or a piece, a line headed by the entry shows the natural chain unless it says otherwise.
UniProt Q9P021: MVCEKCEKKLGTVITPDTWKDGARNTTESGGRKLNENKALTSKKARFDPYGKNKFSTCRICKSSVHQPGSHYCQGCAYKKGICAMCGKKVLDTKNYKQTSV
UniProt P23258: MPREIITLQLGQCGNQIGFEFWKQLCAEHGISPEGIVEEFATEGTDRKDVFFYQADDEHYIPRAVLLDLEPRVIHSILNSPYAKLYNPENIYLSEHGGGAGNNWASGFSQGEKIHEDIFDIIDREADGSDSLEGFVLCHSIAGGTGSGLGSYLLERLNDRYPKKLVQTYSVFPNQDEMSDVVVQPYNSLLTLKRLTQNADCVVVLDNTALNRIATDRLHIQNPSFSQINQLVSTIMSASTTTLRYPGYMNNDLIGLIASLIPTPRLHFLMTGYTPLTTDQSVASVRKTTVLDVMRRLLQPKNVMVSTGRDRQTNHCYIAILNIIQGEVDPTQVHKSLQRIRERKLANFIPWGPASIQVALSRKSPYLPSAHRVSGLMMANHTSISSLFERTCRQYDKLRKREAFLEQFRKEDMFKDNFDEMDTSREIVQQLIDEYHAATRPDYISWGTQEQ

Biological target: DsRed-CRIPT^WT, co-expressed with GFP-tagged tubulin in interphase HeLa cells (human) (UniProt Q9P021)
Assay: co-IP

binding: binds
Substance: GFP-tagged γ-tubulin (from UniProt P23258)
